The text below walks through data of PMC3276543, “Structural Basis of Transcriptional Gene Silencing Mediated by Arabidopsis MOM1” (PLoS Genetics, 2012).

Positions count from the first letter of the chain named. Names and notes keep the numbering of the source. These are yes or no findings as the source states them, for the method shown. Some results given as binding are weak or reduced against the parent protein; the word gives no strength. For some of these results: Where a sequence is shown, tags or fusion partners need not be part of it.

Common to all, as to assay: two-hybrid; Matchmaker Gold Yeast Two-Hybrid System (Clontech); GAL4-AD and GAL4-BD fusions of the same fragment co-transformed in yeast; α-galactosidase staining
In experiment [1] the target is CMM2 fragment (aa 1730 to 1815) fused to the GAL4 activation and DNA-binding domains (Arabidopsis thaliana) (UniProt Q9M658).
In experiment [2] the target is CMM2-mut1 (L1761D and L1765D) (Arabidopsis thaliana) (UniProt Q9M658).
Experiment [3] addresses CMM2-mut3 (N1799A, I1802E, and L1806P) (Arabidopsis thaliana) (UniProt Q9M658).
Experiment [4] deals with CMM2-mut2 (F1736P, L1737E, and L1740A) (Arabidopsis thaliana) (UniProt Q9M658).

B1: CMM2 fragment (aa 1730 to 1815) fused to the GAL4 activation and DNA-binding domains (domain or fragment, UniProt Q9M658 1730-1815)
chain: PVFNDPFLHELEKLRRESENSKKTFEEKKSILKAELERKMAEVQAEFRRKFHEVEAEHNTRTTKIEKDKNLVIMNKLLANAFLSKC
As for B1, in experiment [1], the binding entry is “binds”.

B2: CMM2-mut1 (L1761D and L1765D) (domain or fragment, UniProt Q9M658 1730-1815)
chain: B1 chain with L32D, L36D
For the molecule B2, the binding entry in experiment [2] is recorded as “no binding”.

B3: CMM2-mut3 (N1799A, I1802E, and L1806P) (domain or fragment, UniProt Q9M658 1730-1815)
chain: B1 chain with N70A, I73E, L77P
In the case of B3, in experiment [3], the binding entry is listed as “binds”.

B4: CMM2-mut2 (F1736P, L1737E, and L1740A) (domain or fragment, UniProt Q9M658 1730-1815)
chain: B1 chain with F7P, L8E, L11A
Take B4: the binding entry in experiment [4] is on record as “binds”.
